Reference: publication PMC8346139, “Synthesis of New Tricyclic 1,2-Thiazine Derivatives with Anti-Inflammatory Activity” (International Journal of Molecular Sciences, 2021)

Test: Differential scanning calorimetry (DSC) of DPPC model membranes
Assay type: physicochemical
Conditions: pH 7.4, ±SD
[1] = molar ratio compound:lipid 0.06
[2] = molar ratio compound:lipid 0.08
[3] = molar ratio compound:lipid 0.12

## COc1ccc(C2=C3C(=O)c4ccccc4S(=O)(=O)N3CCCO2)cc1 [Compound 6e, 1-(4-methoxyphenyl)-7,7-dioxo-4,5-dihydro-3H-[1,4]oxazepino[4,3-b][1,2]benzothiazin-12-one]
[1]
  DPPC ΔH (transition enthalpy changes): 42.5 ± 1.51 J/g
[2]
  DPPC ΔH (transition enthalpy changes): 38.5 ± 0.53 J/g
Molar ratio compound:lipid 0.1
  DPPC ΔH (transition enthalpy changes): 37.4 ± 0.43 J/g
[3]
  DPPC ΔH (transition enthalpy changes): 33.0 ± 0.51 J/g

## O=C1C2=C(c3ccc(Br)cc3)OCCCN2S(=O)(=O)c2ccccc21 [Compound 6b, 1-(4-bromophenyl)-7,7-dioxo-4,5-dihydro-3H-[1,4]oxazepino[4,3-b][1,2]benzothiazin-12-one]
[1]
  DPPC ΔH (transition enthalpy changes): 42.4 ± 0.06 J/g
[2]
  DPPC ΔH (transition enthalpy changes): 33.4 ± 0.52 J/g
Molar ratio compound:lipid 0.1
  DPPC ΔH (transition enthalpy changes): 22.6 ± 1.43 J/g
[3]
  DPPC ΔH (transition enthalpy changes): 28.5 ± 0.81 J/g

## O=C1C2=C(c3ccccc3)OCCN2S(=O)(=O)c2ccccc21 [Compound 5, 6,6-dioxo-1-phenyl-3,4-dihydro-[1,4] oxazino [4,3-b][1,2]benzothiazin-11-one]
[1]
  DPPC ΔH (transition enthalpy changes): 44.2 ± 1.43 J/g
[2]
  DPPC ΔH (transition enthalpy changes): 33.5 ± 0.09 J/g
Molar ratio compound:lipid 0.1
  DPPC ΔH (transition enthalpy changes): 34.2 ± 0.79 J/g
[3]
  DPPC ΔH (transition enthalpy changes): 29.3 ± 1.61 J/g

## O=C1C2=C(c3ccc(Cl)cc3)OCCCN2S(=O)(=O)c2ccccc21 [Compound 6c, 1-(4-chlorophenyl)-7,7-dioxo-4,5-dihydro-3H-[1,4]oxazepino[4,3-b][1,2]benzothiazin-12-one]
[1]
  DPPC ΔH (transition enthalpy changes): 39.6 ± 0.81 J/g
[2]
  DPPC ΔH (transition enthalpy changes): 35.4 ± 0.01 J/g
Molar ratio compound:lipid 0.1
  DPPC ΔH (transition enthalpy changes): 34.2 ± 0.29 J/g
[3]
  DPPC ΔH (transition enthalpy changes): 34.9 ± 3.09 J/g

## Cc1ccc(C2=C3C(=O)c4ccccc4S(=O)(=O)N3CCCO2)cc1 [Compound 6d, 7,7-dioxo-1-(p-tolyl)-4,5-dihydro-3H-[1,4]oxazepino[4,3-b][1,2]benzothiazin-12-one]
[1]
  DPPC ΔH (transition enthalpy changes): 40.2 ± 0.12 J/g
[2]
  DPPC ΔH (transition enthalpy changes): 36.1 ± 0.60 J/g
Molar ratio compound:lipid 0.1
  DPPC ΔH (transition enthalpy changes): 29.5 ± 0.19 J/g
[3]
  DPPC ΔH (transition enthalpy changes): 29.6 ± 0.31 J/g

## O=C1C2=C(c3ccccc3)OCCCCN2S(=O)(=O)c2ccccc21 [Compound 7, 8,8-dioxo-1-phenyl-3,4,5,6-tetrahydro-[1,4]oxazocino[4,3-b][1,2]benzothiazin-13-one]
[1]
  DPPC ΔH (transition enthalpy changes): 44.0 ± 2.06 J/g
[2]
  DPPC ΔH (transition enthalpy changes): 38.3 ± 1.17 J/g
Molar ratio compound:lipid 0.1
  DPPC ΔH (transition enthalpy changes): 36.1 ± 0.64 J/g
[3]
  DPPC ΔH (transition enthalpy changes): 42.2 ± 1.43 J/g

## O=C1C2=C(c3ccccc3)OCCCN2S(=O)(=O)c2ccccc21 [Compound 6a, 7,7-dioxo-1-phenyl-4,5-dihydro-3H-[1,4]oxazepino[4,3-b][1,2]benzothiazin-12-one]
[1]
  DPPC ΔH (transition enthalpy changes): 38.2 ± 0.20 J/g
[2]
  DPPC ΔH (transition enthalpy changes): 34.6 ± 0.27 J/g
Molar ratio compound:lipid 0.1
  DPPC ΔH (transition enthalpy changes): 32.5 ± 0.12 J/g
[3]
  DPPC ΔH (transition enthalpy changes): 35.1 ± 0.18 J/g

## O=C(C1=C(O)c2ccccc2S(=O)(=O)N1)c1ccc(Cl)cc1 [Compound 4c]
[1]
  DPPC ΔH (transition enthalpy changes): 40.0 ± 1.94 J/g
[2]
  DPPC ΔH (transition enthalpy changes): 33.9 ± 1.41 J/g
Molar ratio compound:lipid 0.1
  DPPC ΔH (transition enthalpy changes): 30.7 ± 0.11 J/g
[3]
  DPPC ΔH (transition enthalpy changes): 24.4 ± 1.16 J/g

## Cc1ccc(C(=O)C2=C(O)c3ccccc3S(=O)(=O)N2)cc1 [Compound 4d]
[1]
  DPPC ΔH (transition enthalpy changes): 39.2 ± 1.71 J/g
[2]
  DPPC ΔH (transition enthalpy changes): 31.2 ± 1.78 J/g
Molar ratio compound:lipid 0.1
  DPPC ΔH (transition enthalpy changes): 25.1 ± 2.27 J/g
[3]
  DPPC ΔH (transition enthalpy changes): 23.4 ± 4.41 J/g

## O=C(C1=C(O)c2ccccc2S(=O)(=O)N1)c1ccccc1 [Compound 4a]
[1]
  DPPC ΔH (transition enthalpy changes): 42.9 ± 2.29 J/g
[2]
  DPPC ΔH (transition enthalpy changes): 40.3 ± 0.85 J/g
Molar ratio compound:lipid 0.1
  DPPC ΔH (transition enthalpy changes): 35.2 ± 0.99 J/g
[3]
  DPPC ΔH (transition enthalpy changes): 37.8 ± 0.43 J/g
